Assay results: patent publication US20260374818A1, “CATIONIC PEPTIDES WITH BROAD SPECTRUM ACTIVITY” (priority 2023, published 2026)

Tested on: Enterococcus faecium #2-1
Experiment: Biofilm inhibition (at least 80%), E. faecium
Assay type: cell-based
Settings: E. faecium #2-1; n = 3; TSB + 1% glucose; 48 hours; crystal violet

SMILES: O=C(O)c1cn(C2CC2)c2cc(N3CCNCC3)c(F)cc2c1=O [CIP]
- Peptide/Antibiotic Concentration where at least 80% of biofilm growth was inhibited: >256 µg/mL
